Results: the supplement of paper PMC6411743
± gives the standard deviation of the averaged measurements. The list shows a part of the results.

Sequences of proteins named here, by UniProt entry; tags and fusion partners are left off. A change or cut given only in a name is not applied to a line headed by its entry.
UniProt Q9BXS9: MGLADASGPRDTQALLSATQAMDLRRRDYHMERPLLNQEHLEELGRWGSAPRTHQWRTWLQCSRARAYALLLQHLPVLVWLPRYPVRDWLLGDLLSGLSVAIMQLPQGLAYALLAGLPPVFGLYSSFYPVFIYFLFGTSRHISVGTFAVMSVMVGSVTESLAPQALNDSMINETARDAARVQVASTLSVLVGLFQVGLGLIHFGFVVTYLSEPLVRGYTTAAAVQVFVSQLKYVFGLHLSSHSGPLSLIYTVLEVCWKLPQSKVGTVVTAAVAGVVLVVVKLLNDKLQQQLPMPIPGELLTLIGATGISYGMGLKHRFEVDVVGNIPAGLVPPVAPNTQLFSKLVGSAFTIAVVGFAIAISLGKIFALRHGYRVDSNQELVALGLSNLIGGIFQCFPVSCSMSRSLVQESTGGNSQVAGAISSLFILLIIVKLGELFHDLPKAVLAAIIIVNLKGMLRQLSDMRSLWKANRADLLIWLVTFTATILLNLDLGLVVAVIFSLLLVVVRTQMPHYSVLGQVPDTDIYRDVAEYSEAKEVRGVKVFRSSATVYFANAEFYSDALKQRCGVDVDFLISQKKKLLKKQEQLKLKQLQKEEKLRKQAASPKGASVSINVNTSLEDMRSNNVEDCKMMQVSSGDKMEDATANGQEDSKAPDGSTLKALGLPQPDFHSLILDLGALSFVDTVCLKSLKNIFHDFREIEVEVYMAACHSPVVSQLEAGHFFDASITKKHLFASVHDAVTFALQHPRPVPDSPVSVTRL
UniProt P62873, whole entry: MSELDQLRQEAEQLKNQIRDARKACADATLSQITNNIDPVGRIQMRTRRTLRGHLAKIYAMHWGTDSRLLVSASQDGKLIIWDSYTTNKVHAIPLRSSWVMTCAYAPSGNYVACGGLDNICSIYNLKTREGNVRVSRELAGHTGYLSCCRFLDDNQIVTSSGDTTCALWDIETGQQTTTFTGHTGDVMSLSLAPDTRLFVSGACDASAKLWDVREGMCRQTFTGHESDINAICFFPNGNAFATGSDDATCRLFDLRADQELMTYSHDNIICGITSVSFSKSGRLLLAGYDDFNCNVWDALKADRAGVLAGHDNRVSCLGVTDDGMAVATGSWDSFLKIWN
UniProt Q12849: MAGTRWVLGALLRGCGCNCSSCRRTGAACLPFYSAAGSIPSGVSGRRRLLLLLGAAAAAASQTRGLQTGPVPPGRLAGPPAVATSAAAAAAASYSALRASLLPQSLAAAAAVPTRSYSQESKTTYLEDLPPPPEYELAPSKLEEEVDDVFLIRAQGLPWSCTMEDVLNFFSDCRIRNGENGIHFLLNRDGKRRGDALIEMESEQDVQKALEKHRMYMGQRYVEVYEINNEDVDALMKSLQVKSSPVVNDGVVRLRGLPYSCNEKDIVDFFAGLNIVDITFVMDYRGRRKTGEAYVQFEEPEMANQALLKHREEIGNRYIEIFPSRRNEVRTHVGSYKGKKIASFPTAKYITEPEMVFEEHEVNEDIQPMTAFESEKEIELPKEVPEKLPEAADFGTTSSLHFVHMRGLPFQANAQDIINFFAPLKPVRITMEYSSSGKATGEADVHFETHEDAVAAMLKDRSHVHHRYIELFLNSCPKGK

Compound: Nc1nc2c(ncn2[C@@H]2O[C@H](COP(=O)(O)OP(=O)(O)OP(=O)(O)O)[C@@H](O)[C@H]2O)c(=O)[nH]1 [guanosine triphosphate]
Assay: NP40-soluble protein abundance relative to vehicle (solubility fold change) (ratio); higher = more soluble protein in presence of GTP
Protocol: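 Solubility proteome profiling in Jurkat crude lysate. Lysate was treated with Mg-GTP (0.1-10 mM) for 10 min at room temperature and 3 min at 37 °C, then solubilised with 0.8% NP40 and benzonase, followed by ultracentrifugation. Proteins were quantified by TMT10 LC-MS/MS; the value is the NP40-soluble abundance relative to the NP40-processed vehicle, from 3 independent experiments.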

Target: F8WCF6 and related entries (UniProt P59998)
- NP40-soluble protein abundance (concentration: 0.1mM): 1 ± 0.062
- NP40-soluble protein abundance (concentration: 0.5mM): 1.04 ± 0.085
- NP40-soluble protein abundance (concentration: 1mM): 0.945 ± 0.053
- NP40-soluble protein abundance (concentration: 2mM): 0.96 ± 0.092
- NP40-soluble protein abundance (concentration: 4mM): 0.913 ± 0.068
- NP40-soluble protein abundance (concentration: 6mM): 0.929 ± 0.056
- NP40-soluble protein abundance (concentration: 8mM): 0.881 ± 0.043
- NP40-soluble protein abundance (concentration: 10mM): 0.864 ± 0.042

Target: G3XAC1 and related entries (UniProt Q9BXS9)
- NP40-soluble protein abundance (concentration: 0.1mM): 0.857 ± 0.063
- NP40-soluble protein abundance (concentration: 0.5mM): 0.854 ± 0.073
- NP40-soluble protein abundance (concentration: 1mM): 0.9 ± 0.045
- NP40-soluble protein abundance (concentration: 2mM): 0.911 ± 0.056
- NP40-soluble protein abundance (concentration: 4mM): 0.87 ± 0.037
- NP40-soluble protein abundance (concentration: 6mM): 0.877 ± 0.036
- NP40-soluble protein abundance (concentration: 8mM): 0.857 ± 0.015
- NP40-soluble protein abundance (concentration: 10mM): 0.917 ± 0.042

Target: F6UT28 and related entries (UniProt P62873)
- NP40-soluble protein abundance (concentration: 0.1mM): 0.927 ± 0.045
- NP40-soluble protein abundance (concentration: 0.5mM): 0.926 ± 0.059
- NP40-soluble protein abundance (concentration: 1mM): 0.888 ± 0.032
- NP40-soluble protein abundance (concentration: 2mM): 0.849 ± 0.052
- NP40-soluble protein abundance (concentration: 4mM): 0.859 ± 0.028
- NP40-soluble protein abundance (concentration: 6mM): 0.887 ± 0.052
- NP40-soluble protein abundance (concentration: 8mM): 0.878 ± 0.041
- NP40-soluble protein abundance (concentration: 10mM): 0.863 ± 0.046

Target: F5H5I6 and related entries (UniProt Q12849)
- NP40-soluble protein abundance (concentration: 0.1mM): 0.9639 ± 0.005
- NP40-soluble protein abundance (concentration: 0.5mM): 0.929 ± 0.017
- NP40-soluble protein abundance (concentration: 1mM): 0.825 ± 0.069
- NP40-soluble protein abundance (concentration: 2mM): 0.787 ± 0.094
- NP40-soluble protein abundance (concentration: 4mM): 0.724 ± 0.12
- NP40-soluble protein abundance (concentration: 6mM): 0.742 ± 0.14
- NP40-soluble protein abundance (concentration: 8mM): 0.725 ± 0.11
- NP40-soluble protein abundance (concentration: 10mM): 0.727 ± 0.12

Target: E7EPB3 and related entries (UniProt P50914)
- NP40-soluble protein abundance (concentration: 0.1mM): 0.895 ± 0.094
- NP40-soluble protein abundance (concentration: 0.5mM): 0.955 ± 0.14
- NP40-soluble protein abundance (concentration: 1mM): 1.02 ± 0.22
- NP40-soluble protein abundance (concentration: 2mM): 0.961 ± 0.25
- NP40-soluble protein abundance (concentration: 4mM): 0.859 ± 0.27
- NP40-soluble protein abundance (concentration: 6mM): 0.83 ± 0.27
- NP40-soluble protein abundance (concentration: 8mM): 0.62 ± 0.18
- NP40-soluble protein abundance (concentration: 10mM): 0.898 ± 0.32
